Laboratory results as given in patent US9572785B2, “DP2 antagonist and uses thereof” (Brickell Biotech, Inc., priority 2009, dated 2017).
Some entries share one result that the patent states for a list of compounds.

How the values were obtained:
[1] = test system: Dog cryopreserved hepatocytes; assay: Metabolite formation in dog hepatocytes; type: in vitro ADME; settings: Compound 1 at 30 μM, semi-quantitative
[2] = Metabolites in rat plasma after oral dosing; type: in vivo; settings: oral dosing with Compound 1, 10 mg/kg in rat
[3] = Metabolites in dog plasma after oral dosing; type: in vivo; settings: oral dosing with Compound 1, 5 mg/kg in dog

SMILES | metabolite generated, peak area relative to parent [1] | metabolite AUC in rat plasma [2] | metabolite AUC in dog plasma [3]
CCN(Cc1cc(C(F)(F)F)ccc1-c1cc(CC(=O)O)ccc1OC)C(N)=O [Compound M3, [2′-(1-ethyl-ureidomethyl)-6-methoxy-4′-trifluoromethyl-biphenyl-3-yl]-acetic acid] | < 0.2 % of the parent | greater than 10 % of parent AUC | –
CCNCc1cc(C(F)(F)F)ccc1-c1cc(CC(=O)O)ccc1OC [Compound M1, 2-(2′-((ethylamino)methyl)-6-methoxy-4′-(trifluoromethyl)biphenyl-3-yl)acetic acid] | < 0.2 % of the parent | – | –
COc1ccc(CC(=O)O)cc1-c1ccc(C(F)(F)F)cc1CNC(=O)NCc1ccccc1 [Compound M6, [2′-(3-benzyl-ureidomethyl)-6-methoxy-4′-trifluoromethyl-biphenyl-3-yl]-acetic acid] | < 0.2 % of the parent | greater than 10 % of parent AUC | greater than 10 % of parent AUC
